In this assay the target is HA‐FAK (UniProt Q00944). As to the kind of experiment: co-IP; HEK293T cells transfected with HA‐FAK and GFP‐PI3KC2α (WT, HBD or HBD deleted); HA‐FAK immunoprecipitated with anti HA antibody and protein G‐Sepharose, bound proteins blotted with anti GFP or anti HA; lysis in 50 mM Tris‐HCl, 150 mM NaCl, 1% NP‐40, 1 mM EDTA, 10% glycerol; 4 °C.

The chains behind the UniProt entries cited, without tags or fusion partners. Where a name states a change or a piece, a line headed by the entry shows the natural chain unless it says otherwise.
UniProt Q00944: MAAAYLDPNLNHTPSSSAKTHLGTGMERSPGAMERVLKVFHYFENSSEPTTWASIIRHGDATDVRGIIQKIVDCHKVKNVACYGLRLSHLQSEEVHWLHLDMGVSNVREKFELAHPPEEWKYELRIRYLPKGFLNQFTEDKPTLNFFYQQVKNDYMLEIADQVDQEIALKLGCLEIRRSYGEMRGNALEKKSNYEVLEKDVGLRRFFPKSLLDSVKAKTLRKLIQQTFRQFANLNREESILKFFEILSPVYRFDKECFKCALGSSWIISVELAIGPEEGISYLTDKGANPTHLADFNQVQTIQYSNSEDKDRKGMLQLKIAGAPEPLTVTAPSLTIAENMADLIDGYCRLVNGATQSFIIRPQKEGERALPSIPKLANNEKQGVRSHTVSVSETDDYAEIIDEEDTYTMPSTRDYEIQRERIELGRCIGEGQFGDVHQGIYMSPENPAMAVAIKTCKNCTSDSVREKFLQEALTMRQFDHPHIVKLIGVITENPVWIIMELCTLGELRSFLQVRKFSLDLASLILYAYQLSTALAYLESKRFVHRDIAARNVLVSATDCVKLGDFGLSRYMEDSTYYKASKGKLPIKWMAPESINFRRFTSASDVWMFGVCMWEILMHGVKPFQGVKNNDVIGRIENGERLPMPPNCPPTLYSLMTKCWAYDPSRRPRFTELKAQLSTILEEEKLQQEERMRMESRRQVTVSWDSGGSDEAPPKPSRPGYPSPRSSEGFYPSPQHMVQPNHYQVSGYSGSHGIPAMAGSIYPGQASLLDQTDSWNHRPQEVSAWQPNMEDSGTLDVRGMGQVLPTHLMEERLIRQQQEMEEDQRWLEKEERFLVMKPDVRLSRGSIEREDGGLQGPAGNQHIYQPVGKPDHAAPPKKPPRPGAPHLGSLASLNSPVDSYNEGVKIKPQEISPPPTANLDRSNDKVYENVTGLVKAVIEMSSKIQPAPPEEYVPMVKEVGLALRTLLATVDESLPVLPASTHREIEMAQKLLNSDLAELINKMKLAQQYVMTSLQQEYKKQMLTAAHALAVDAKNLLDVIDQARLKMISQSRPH
UniProt O00443: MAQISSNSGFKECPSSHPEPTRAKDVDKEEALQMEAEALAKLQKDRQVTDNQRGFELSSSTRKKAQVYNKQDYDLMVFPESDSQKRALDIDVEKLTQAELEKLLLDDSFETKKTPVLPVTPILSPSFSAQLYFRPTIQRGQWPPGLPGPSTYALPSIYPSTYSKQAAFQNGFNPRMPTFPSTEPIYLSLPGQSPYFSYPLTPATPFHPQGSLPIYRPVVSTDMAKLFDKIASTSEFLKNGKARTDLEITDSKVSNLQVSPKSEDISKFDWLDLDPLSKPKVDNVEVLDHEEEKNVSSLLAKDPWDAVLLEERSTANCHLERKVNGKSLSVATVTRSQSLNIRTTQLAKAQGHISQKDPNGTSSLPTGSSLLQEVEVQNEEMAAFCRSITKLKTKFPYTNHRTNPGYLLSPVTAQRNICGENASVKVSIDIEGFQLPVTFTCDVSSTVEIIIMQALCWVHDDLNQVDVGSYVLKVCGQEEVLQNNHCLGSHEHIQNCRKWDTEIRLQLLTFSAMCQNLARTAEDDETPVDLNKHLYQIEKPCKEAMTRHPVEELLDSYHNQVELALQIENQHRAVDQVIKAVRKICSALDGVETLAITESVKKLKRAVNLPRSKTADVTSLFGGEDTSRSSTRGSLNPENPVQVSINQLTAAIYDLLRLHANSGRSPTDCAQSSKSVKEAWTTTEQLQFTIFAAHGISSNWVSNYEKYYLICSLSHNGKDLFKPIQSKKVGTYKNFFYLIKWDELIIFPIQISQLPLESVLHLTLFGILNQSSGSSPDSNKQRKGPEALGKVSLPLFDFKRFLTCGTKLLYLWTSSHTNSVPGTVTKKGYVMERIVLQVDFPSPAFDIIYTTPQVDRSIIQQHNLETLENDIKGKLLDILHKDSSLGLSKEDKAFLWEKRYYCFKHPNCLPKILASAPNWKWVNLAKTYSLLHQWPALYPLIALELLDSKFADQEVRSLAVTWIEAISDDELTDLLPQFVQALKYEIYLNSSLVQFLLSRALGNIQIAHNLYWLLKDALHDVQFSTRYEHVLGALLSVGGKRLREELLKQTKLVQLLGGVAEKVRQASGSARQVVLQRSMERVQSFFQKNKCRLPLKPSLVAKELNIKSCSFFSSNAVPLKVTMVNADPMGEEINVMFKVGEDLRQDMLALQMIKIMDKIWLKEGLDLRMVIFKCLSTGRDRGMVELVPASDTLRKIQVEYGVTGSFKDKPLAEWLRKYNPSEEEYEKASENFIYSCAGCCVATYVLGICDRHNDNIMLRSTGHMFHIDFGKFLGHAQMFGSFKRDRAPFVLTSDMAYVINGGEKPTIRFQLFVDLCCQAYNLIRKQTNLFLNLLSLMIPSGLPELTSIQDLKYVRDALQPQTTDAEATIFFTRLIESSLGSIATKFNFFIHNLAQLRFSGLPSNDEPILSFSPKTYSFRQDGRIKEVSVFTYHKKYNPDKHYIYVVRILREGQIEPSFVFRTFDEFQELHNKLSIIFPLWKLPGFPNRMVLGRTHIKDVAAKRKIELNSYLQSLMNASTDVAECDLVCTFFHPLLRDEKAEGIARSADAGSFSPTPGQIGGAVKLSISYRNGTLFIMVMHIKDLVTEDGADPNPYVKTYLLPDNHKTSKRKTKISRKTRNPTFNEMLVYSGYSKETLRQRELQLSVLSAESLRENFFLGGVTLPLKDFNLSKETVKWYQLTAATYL

Results are given in words; binding and its absence hold for the method and conditions named. In cells and extracts the contact can be indirect.

As to “GFP‐PI3KC2αΔHBD (from UniProt O00443) (enzyme)”, the binding result is on record as “no binding”.

The record behind these values is article PMC8948670.
